These results are taken from the supplement of paper PMC10338343.

± gives the standard deviation. The list shows a part of the results, in another mix than the full data. Many entries were measured with a wide error.

The test system of this assay is MIWI (PIWIL1) piRISC loaded with Kctd7 piRNA (30 nt). In words: pre-steady-state target cleavage rate (min^-1); MIWI and MILI are mouse PIWI proteins and EfPiwi is from a freshwater sponge; tags in brackets are library labels; higher = faster piRNA-guided slicing of the target. The following applies: guide: Kctd7 piRNA 5'p-UGUUAAUCUCUCAGAGAAGGUGACAGUGAU; auxiliary factor: 500 nM mouse GTSF1. How it is done:
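Cleave-'n-Seq: a library of target RNAs (target site embedded in constant flanks, ACAGCATTCCGCGTTAGTGATATCCG... 5' flank; DNA-blocked outside the site) at 0.1 nM was incubated with 1 nM active mouse MILI or MIWI piRISC (synthetic 5'-monophosphorylated piRNA guide) with or without 500 nM mouse GTSF1 at 33 °C for 1 min to 16 h. Uncleaved targets were sequenced and normalised to non-target controls, and the pooled three trials were fitted to a burst-and-steady-state model to give the pre-steady-state cleavage rate (min^-1; k3 is constrained to at most 1e-4). Sequence is the target site only; target names encode pairing extent (gX:gY) and contiguous / 1-mismatch / 2-mismatch / bulge geometry. Fits with R² ≤ 0 are excluded.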
For UAGUGACACACGUUCUCUGAGAGAUUUUGA, the “pre-steady-state target cleavage rate” value came out at 0.000579 ± 0.012. With UUCACUGUCACCUUCUCUCUCAGAUUAAGA, the “pre-steady-state target cleavage rate” value stood at 0.00255 ± 0.0046. Next, UAGUGACUCACCUUCUCUGACAGAUUUUGA: 0.000709 ± 0.01; UUCACUGUCUCGUUCUCUGAGAGAUUAACA: 0.631 ± 0.035.

In the case of UAGUGACAGACCUUGACUGAGAGAUUAACA, the “pre-steady-state target cleavage rate” value is 0.00189 ± 0.0069. Take UAGUGACACACCUUCUCUGAAGAUUAACA: the “pre-steady-state target cleavage rate” value was determined as 0.00202 ± 0.0047. With UAGUGACAGACCUUCUCUGAGCAGAUUAACA, the “pre-steady-state target cleavage rate” value turned out to be 0.00301 ± 0.0034. For the sequence AUGACUGUCUCCUUCUCUGAGAGAUUAACA, the “pre-steady-state target cleavage rate” value stood at 0.623 ± 0.037. In the case of UACACUGUCACCUUCUCUGACUGAUAUUGA it was 0.00184 ± 0.0053; in that of UAGUGACACUCCUUCUCUGAGAGAUUUUGA, 0.00309 ± 0.0033.

UAGUGACAGUCCUUCUGAGAGAGAUUAUGA: the “pre-steady-state target cleavage rate” value stood at 0.000448 ± 0.012. For the sequence UAGUGACAGUGGAACUCUGAGGAUUAACA, the “pre-steady-state target cleavage rate” value was 0.000126 ± 0.031. For UAGUGUGUCACCUUCUCUGUCUGAUUAUGA, the “pre-steady-state target cleavage rate” value worked out at 0.0007 ± 0.016. In the case of UACACUGUCACCUUCUCUCUCAGAUAUUGA it was 0.00177 ± 0.0091. Regarding UAGUGACAGUCCUUCUCUGAGGAGAUUAACA, the “pre-steady-state target cleavage rate” value was 0.000831 ± 0.0083. On to UAGUGACAGUCCUUCUCUGAGAGAUAUUCA, for which the “pre-steady-state target cleavage rate” value was determined as 0.00085 ± 0.0052. UAGUGACACACCUUCUCUGAGUCUUUUUGA: the “pre-steady-state target cleavage rate” value turned out to be 0.000586 ± 0.014. Turning to UAGUGACACACCAACUCUGAGAGAUUAACA, the “pre-steady-state target cleavage rate” value amounted to 0.0222 ± 0.0043. Take UAGUGACAGUGGAACUCUGAGAGUUUAACA: the “pre-steady-state target cleavage rate” value came to 0.000144 ± 0.033.

Turning to UAGUGACUCACCUUCUGUGAGAGAUAUUGA, the “pre-steady-state target cleavage rate” value amounted to 0.0024 ± 0.0053. For the sequence UAGUGACUCACCUUCUCUGAAGAGAUUAACA, the “pre-steady-state target cleavage rate” value worked out at 0.000781 ± 0.0084.

Turning to UAGACUGUCACCUACUCUGAGAGAUUUUGA, the “pre-steady-state target cleavage rate” value amounted to 0.000783 ± 0.0075. For the sequence UAGUGAGUCACCUUCUGACAGAGAUUAUGA, the “pre-steady-state target cleavage rate” value worked out at 0.000888 ± 0.01.

For the sequence UAGUGACAGUCGUACUCUGAGAGAUUAACA, the “pre-steady-state target cleavage rate” value was found to be 0.00133 ± 0.0052. As to UAGUGACACUGCUUCUCUGAGAGAUUUUGA, the “pre-steady-state target cleavage rate” value came to 0.000179 ± 0.024. For the sequence UAGUGACAGACCUUCUCAGAGUGAUUAACA, the “pre-steady-state target cleavage rate” value came to 0.00139 ± 0.011. UACACUCUCACCUUCUCUGAGAGAUUAACA: the “pre-steady-state target cleavage rate” value was determined as 0.444 ± 0.031. Regarding UAGUGACAGUGCUUGUCUGAGAGAAUAACA, the “pre-steady-state target cleavage rate” value amounted to 0.00105 ± 0.0073. Consider UAGUGACAGUGCUUCUCUGAGAGACUAACA, for which the “pre-steady-state target cleavage rate” value came to 0.00104 ± 0.006.

Regarding AUCAGACUCACCUUCUCUGAGAGAUUAACA, the “pre-steady-state target cleavage rate” value is 0.726 ± 0.045.

As to UAGUGAGUCACCUUCAGUGAGAGAUAUUGA, the “pre-steady-state target cleavage rate” value was determined as 0.00299 ± 0.0045. As for UUACUGUCACCUUCUCUGAGAGAUUAACA, the “pre-steady-state target cleavage rate” value amounted to 0.743 ± 0.041. As for UAGUGACAGUGGUUCAUCUGAGAGAUUAACA, the “pre-steady-state target cleavage rate” value amounted to 0.000223 ± 0.025. Turning to UAGUGACAGUGGAAGAGACAGAGAAUAAGA, the “pre-steady-state target cleavage rate” value was 0.000467 ± 0.016. In the case of UAGUGACAGUCCUUCUCUGAGAGAUAAAGA it was 0.000599 ± 0.0093; in that of UAGUGACAGUGGAAAUCUGAGAGAUUAACA, 0.00027 ± 0.013; in that of UAGUGACAGACCUACUCUGAGAGAUUAUGA, 0.000197 ± 0.019.

For UAGUCUCAGACCUUCUCUGAGAGAUAUUGA, the “pre-steady-state target cleavage rate” value is 0.00151 ± 0.0048. In the case of UAGUGACAGUCCUUCUCUAGAGAUUAACA it was 0.00165 ± 0.0054; in that of UAGACUGUCACCUUCUCUGUCUGAUUAAGA, 0.00102 ± 0.0066.

In the case of UAGUGACAGUCCUUCUCUGAGUGAUUAAGA, the “pre-steady-state target cleavage rate” value stood at 0.000265 ± 0.024. Take UAGUGACAGUGCUUCUCUGAGAGGAUUAACA: the “pre-steady-state target cleavage rate” value was 0.00187 ± 0.004. Next, UAGACUGUCACCUUCUCUGAGUCAUUAUGA: 0.00082 ± 0.0063; UGCACUGUCACCUUCUCUGAGAGAUUAACA: 0.726 ± 0.039. On to UACACGUGUCACCUUCUCUGAGAGAUUAACA, for which the “pre-steady-state target cleavage rate” value was 0.563 ± 0.026. Next, UAGUGACAGUGGAAGAGUGAGAGAUUACCA: 0.000104 ± 0.054; UAGUGACAGUGCAUCUCUGAGUGAUUAACA: 0.00018 ± 0.014. Next, UAGACUGUCACCUCCUCUGAGAGAUUAACA: 0.744 ± 0.035; UAGACUGUCACCUUCUCUGACAGAUAAACA: 0.00332 ± 0.0035.

As for UAGACUGUCACCUUCUCUGAGUGAUUAAGA, the “pre-steady-state target cleavage rate” value came to 0.00136 ± 0.0041.

Turning to UAGUGACAGAGCUUCUCAGAGAGAUUAACA, the “pre-steady-state target cleavage rate” value amounted to 0.0013 ± 0.0061. In the case of UAGACUGUCAGCUUCUCUGAGAGAUUAACA it was 0.753 ± 0.05; in that of UAGUGACAGUGCUUCUCUGAGAGUUUAAGA, 0.000346 ± 0.0082; in that of “UAGUGACAGUGGAAGAGACAGAGAUAUUGA [g6:g11:cont:t1A]”, 0.000212 ± 0.017. Take UAGUGACAGACCUUCUCUGAGACAUUAUCA: the “pre-steady-state target cleavage rate” value stood at 0.00173 ± 0.0056. Consider UACACUGUCACCUCCUCUGAGAGAUUAACA, for which the “pre-steady-state target cleavage rate” value is 0.731 ± 0.026. In the case of UUCACUGUCACCUUCUCUGAGUGAUUAUGA, the “pre-steady-state target cleavage rate” value was 0.00308 ± 0.0045. Turning to UAGUGACACACCUUCUCUGACUCAUAUUGA, the “pre-steady-state target cleavage rate” value turned out to be 0.000131 ± 0.028.

As for AUCUCUGUCACCUUCUCUGAGAGAUUUUGA, the “pre-steady-state target cleavage rate” value was determined as 0.191 ± 0.042. Consider “UAGUGACAGACCUUCUCUGAGAGUAAUUGA [g8:g21:cont:t1A]”, for which the “pre-steady-state target cleavage rate” value worked out at 0.000558 ± 0.013. In the case of UAGUGACAGUGGAAGAGACAGGAGAUUAACA it was 0.00014 ± 0.044; in that of UACACUGUCACCUUCUCUGUCUGAUUAACA, 0.00434 ± 0.0053; in that of UAGUGACUCACCUUCUCUGAGUGAUUAAGA, 0.00298 ± 0.0039. In the case of UAGACUCAGACCUUCUCUGAGAGAUUUUGA, the “pre-steady-state target cleavage rate” value turned out to be 0.00287 ± 0.0034. As for UAGUGACAGUGGAAGUCUGAGAGAUUAACA, the “pre-steady-state target cleavage rate” value was 0.000243 ± 0.0083.

For the sequence UAGUCUGUCACCUUCUCUGAGUGAUUUACA, the “pre-steady-state target cleavage rate” value was determined as 0.0221 ± 0.0058. Regarding UAGACUGUCACUCUUCUCUGAGAGAUUAACA, the “pre-steady-state target cleavage rate” value is 0.457 ± 0.032. With UAGUGACAGUGGUGUCUCUGAGAGAUUAACA, the “pre-steady-state target cleavage rate” value was found to be 0.000158 ± 0.021.

Turning to UAGUGACAGACCUUCUCUGAGACAUAAACA, the “pre-steady-state target cleavage rate” value was 0.00185 ± 0.0048. In the case of UAGUGACUCACCUUCUCUGACUCAUAUUGA it was 0.000153 ± 0.02. Next, UAGACUGUCAGGAUCUCUGAGAGAUUAAGA: 0.000464 ± 0.014.
